Taken from: PubChem BioAssay AID1259425 (University of Nebraska Medical Center, 2018)
Shown is one part, drawn at random, of about 14,000 reagents tested. The numbers tell different reagents against one gene apart. Further read-outs or replicates are left out here. The record does not give: the time to read-out.

Assay: 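Compare each knockdown with KSR1 silencing using changes in marker transcripts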 (primary screen)
Cells: HCT116 human colon cancer cells
Reagent: siRNA pool against human genes, 50 nM siRNA
Detection: 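After 50 nM siRNA pool, branched-DNA assay measures six marker transcripts per well, minus blank, normalised to the geometric mean of two housekeeping transcripts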
Reading the numbers: BNIP3L mRNA: higher = more BNIP3L transcript after knockdown; NDRG1 mRNA: higher = more NDRG1 transcript after knockdown; BNIP3 mRNA: higher = more BNIP3 transcript after knockdown; ALDOC mRNA: higher = more ALDOC transcript after knockdown

| target | reagent | BNIP3L mRNA, set 1 | NDRG1 mRNA, set 1 | BNIP3 mRNA, set 1 | ALDOC mRNA, set 1 |
| --- | --- | --- | --- | --- | --- |
| CUL4B | 1 | 0.101 | 0.215 | 0.354 | 0.0264 |
| FBXO38 | 1 | 0.0397 | 0.0952 | 0.17 | 0.0171 |
| SLN | 1 | 0.0759 | 0.201 | 0.355 | 0.0334 |
| HERC5 | 1 | 0.0635 | 0.143 | 0.265 | 0.0284 |
| ETV3 | 1 | 0.0824 | 0.142 | 0.117 | 0.0305 |
| TTC7A | 1 | 0.267 | 0.316 | 0.242 | 0.0841 |
| SPOCK2 | 1 | 0.154 | 0.0768 | 0.154 | 0.0236 |
| EPHA1 | 1 | 0.11 | 0.0411 | 0.389 | 0.0137 |
| PLA2G1B | 1 | 0.12 | 0.147 | 0.232 | 0.0229 |
| B4GALT3 | 1 | 0.0842 | 0.366 | 0.343 | 0.0433 |
| DIRAS1 | 1 | 0.151 | 0.0596 | 0.276 | 0.00635 |
| KLF12 | 1 | 0.122 | 0.201 | 0.264 | 0.00944 |
| DNMT3B | 1 | 0.209 | 0.465 | 0.275 | 0.0886 |
| SLC4A5 | 1 | 0.186 | 0.323 | 0.259 | 0.108 |
| SYDE1 | 1 | 0.173 | 0.672 | 0.333 | 0.0261 |
| PCYOX1 | 1 | 0.145 | 0.129 | 0.287 | 0.0644 |
| PSG6 | 1 | 0.116 | 0.214 | 0.355 | 0.0321 |
| SCRT1 | 1 | 0.138 | 0.195 | 0.484 | 0.228 |
| SCRT1 | 2 | 0.229 | 0.102 | 0.269 | 0.0773 |
| AASDHPPT | 1 | 0.0973 | 0.308 | 0.335 | 0.0748 |
| GNB2 | 1 | 0.191 | 1.05 | 0.32 | 0.0396 |
| PRB4 | 1 | 0.107 | 0.247 | 0.473 | 0.0896 |
| SURF4 | 1 | 0.0861 | 0.0733 | 0.332 | 0.0159 |
| NEFL | 1 | 0.113 | 0.684 | 0.268 | 0.0267 |
| LAD1 | 1 | 0.0445 | 0.0307 | 0.29 | 0.0112 |
| CCR3 | 1 | 0.102 | 0.152 | 0.359 | 0.0396 |
| PCYT2 | 1 | 0.15 | 0.142 | 0.337 | 0.0398 |
| PTPN3 | 1 | 0.0677 | 0.117 | 0.283 | 0.0154 |
| PRMT2IP | 1 | 0.14 | 0.852 | 0.196 | 0.05 |
| NDUFA2 | 1 | 0.181 | 0.851 | 0.312 | 0.0195 |
| GPRASP3 | 1 | 0.0957 | 0.224 | 0.316 | 0.0253 |
| ARHGAP15 | 1 | 0.148 | 0.101 | 0.197 | 0.0328 |
| NIP7 | 1 | 0.174 | 0.298 | 0.521 | 0.0322 |
| SERPINE2 | 1 | 0.163 | 0.449 | 0.269 | 0.00673 |
| MTOR | 1 | 0.185 | 0.07 | 0.305 | 0.0111 |
| ZNF607 | 1 | 0.11 | 0.132 | 0.154 | 0.0339 |
| OCRL | 1 | 0.0726 | 0.199 | 0.196 | 0.0834 |
| GGT3P | 1 | 0.182 | 0.707 | 0.311 | 0.02 |
| MGA | 1 | 0.11 | 0.158 | 0.307 | 0.0203 |
| MAGEE1 | 1 | 0.0904 | 0.367 | 0.322 | 0.0376 |
| LGR5 | 1 | 0.192 | 0.136 | 0.346 | 0.0435 |
| NSG1 | 1 | 0.125 | 0.169 | 0.436 | 0.0256 |
| INPP5J | 1 | 0.168 | 0.176 | 0.277 | 0.092 |
| CAD | 1 | 0.102 | 0.383 | 0.319 | 0.0149 |
| SYDE2 | 1 | 0.133 | 0.265 | 0.273 | 0.0606 |
| ROM1 | 1 | 0.127 | 0.227 | 0.28 | 0.0416 |
| LAT2 | 1 | 0.238 | 0.695 | 0.435 | 0.0599 |
| HLA-A | 1 | 0.117 | 0.625 | 0.15 | 0.0244 |
| DMAP1 | 1 | 0.0938 | 1.34 | 0.341 | 0.0428 |
| ANAPC2 | 1 | 0.068 | 0.0466 | 0.195 | 0.0218 |

3 entries already listed, ordered by “ALDOC mRNA, set 1”, highest first:
| target | reagent | BNIP3L mRNA, set 1 | NDRG1 mRNA, set 1 | BNIP3 mRNA, set 1 | ALDOC mRNA, set 1 |
| --- | --- | --- | --- | --- | --- |
| MAGEE1 | 1 | 0.0904 | 0.367 | 0.322 | 0.0376 |
| MGA | 1 | 0.11 | 0.158 | 0.307 | 0.0203 |
| GGT3P | 1 | 0.182 | 0.707 | 0.311 | 0.02 |
